Test results published in the supplement of paper PMC11732987, “Enantioselective OTUD7B fragment discovery through chemoproteomics screening and high-throughput optimisation” (Communications Chemistry, 2025).
The other results are listed elsewhere or left out. The data scatter; read single values as rough.

Sequences of proteins named here, by UniProt entry; tags and fusion partners are left off. A change or cut given only in a name is not applied to a line headed by its entry.
UniProt P98170, whole entry, looked up: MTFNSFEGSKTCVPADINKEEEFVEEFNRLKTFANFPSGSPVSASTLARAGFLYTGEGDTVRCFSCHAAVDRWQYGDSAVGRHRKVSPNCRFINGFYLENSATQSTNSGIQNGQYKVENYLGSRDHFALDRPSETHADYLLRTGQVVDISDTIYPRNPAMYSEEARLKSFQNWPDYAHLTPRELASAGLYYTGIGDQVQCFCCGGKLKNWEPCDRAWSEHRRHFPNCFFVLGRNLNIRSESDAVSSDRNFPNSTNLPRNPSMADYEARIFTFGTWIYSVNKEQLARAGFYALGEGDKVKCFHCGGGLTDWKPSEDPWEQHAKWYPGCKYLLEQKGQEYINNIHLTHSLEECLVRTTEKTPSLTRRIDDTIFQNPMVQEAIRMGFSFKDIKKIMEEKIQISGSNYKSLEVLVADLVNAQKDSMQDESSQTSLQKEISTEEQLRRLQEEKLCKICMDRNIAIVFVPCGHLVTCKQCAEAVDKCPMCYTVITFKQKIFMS
UniProt Q9BZH6: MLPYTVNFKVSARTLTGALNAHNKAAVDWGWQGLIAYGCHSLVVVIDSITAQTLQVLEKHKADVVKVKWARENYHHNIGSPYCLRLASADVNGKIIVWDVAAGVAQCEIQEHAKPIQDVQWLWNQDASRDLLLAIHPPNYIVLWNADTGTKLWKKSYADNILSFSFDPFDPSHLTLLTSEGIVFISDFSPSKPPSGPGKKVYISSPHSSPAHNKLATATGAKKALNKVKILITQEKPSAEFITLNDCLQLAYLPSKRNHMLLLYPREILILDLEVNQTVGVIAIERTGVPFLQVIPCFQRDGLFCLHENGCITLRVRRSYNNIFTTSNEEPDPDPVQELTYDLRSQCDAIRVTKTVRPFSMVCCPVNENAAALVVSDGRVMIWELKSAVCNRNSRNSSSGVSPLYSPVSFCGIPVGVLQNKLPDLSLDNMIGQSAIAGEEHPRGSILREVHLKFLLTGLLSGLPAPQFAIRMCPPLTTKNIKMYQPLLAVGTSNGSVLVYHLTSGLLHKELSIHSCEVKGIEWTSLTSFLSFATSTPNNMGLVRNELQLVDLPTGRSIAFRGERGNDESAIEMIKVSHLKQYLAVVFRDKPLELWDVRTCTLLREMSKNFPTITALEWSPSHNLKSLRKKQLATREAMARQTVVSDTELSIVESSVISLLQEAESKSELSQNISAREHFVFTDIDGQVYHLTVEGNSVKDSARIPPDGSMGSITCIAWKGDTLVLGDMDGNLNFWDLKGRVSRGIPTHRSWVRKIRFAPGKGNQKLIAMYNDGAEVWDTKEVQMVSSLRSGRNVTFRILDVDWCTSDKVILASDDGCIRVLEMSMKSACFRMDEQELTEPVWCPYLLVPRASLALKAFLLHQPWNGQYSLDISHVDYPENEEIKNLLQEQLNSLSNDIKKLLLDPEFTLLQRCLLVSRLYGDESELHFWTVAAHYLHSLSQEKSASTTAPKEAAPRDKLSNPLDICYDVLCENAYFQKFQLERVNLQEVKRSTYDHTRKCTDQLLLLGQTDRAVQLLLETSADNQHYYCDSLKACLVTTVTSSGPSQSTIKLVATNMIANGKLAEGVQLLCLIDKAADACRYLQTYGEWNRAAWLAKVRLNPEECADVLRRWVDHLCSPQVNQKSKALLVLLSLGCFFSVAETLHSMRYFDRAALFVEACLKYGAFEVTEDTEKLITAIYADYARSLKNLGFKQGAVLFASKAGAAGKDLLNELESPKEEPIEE
UniProt Q9ULM3: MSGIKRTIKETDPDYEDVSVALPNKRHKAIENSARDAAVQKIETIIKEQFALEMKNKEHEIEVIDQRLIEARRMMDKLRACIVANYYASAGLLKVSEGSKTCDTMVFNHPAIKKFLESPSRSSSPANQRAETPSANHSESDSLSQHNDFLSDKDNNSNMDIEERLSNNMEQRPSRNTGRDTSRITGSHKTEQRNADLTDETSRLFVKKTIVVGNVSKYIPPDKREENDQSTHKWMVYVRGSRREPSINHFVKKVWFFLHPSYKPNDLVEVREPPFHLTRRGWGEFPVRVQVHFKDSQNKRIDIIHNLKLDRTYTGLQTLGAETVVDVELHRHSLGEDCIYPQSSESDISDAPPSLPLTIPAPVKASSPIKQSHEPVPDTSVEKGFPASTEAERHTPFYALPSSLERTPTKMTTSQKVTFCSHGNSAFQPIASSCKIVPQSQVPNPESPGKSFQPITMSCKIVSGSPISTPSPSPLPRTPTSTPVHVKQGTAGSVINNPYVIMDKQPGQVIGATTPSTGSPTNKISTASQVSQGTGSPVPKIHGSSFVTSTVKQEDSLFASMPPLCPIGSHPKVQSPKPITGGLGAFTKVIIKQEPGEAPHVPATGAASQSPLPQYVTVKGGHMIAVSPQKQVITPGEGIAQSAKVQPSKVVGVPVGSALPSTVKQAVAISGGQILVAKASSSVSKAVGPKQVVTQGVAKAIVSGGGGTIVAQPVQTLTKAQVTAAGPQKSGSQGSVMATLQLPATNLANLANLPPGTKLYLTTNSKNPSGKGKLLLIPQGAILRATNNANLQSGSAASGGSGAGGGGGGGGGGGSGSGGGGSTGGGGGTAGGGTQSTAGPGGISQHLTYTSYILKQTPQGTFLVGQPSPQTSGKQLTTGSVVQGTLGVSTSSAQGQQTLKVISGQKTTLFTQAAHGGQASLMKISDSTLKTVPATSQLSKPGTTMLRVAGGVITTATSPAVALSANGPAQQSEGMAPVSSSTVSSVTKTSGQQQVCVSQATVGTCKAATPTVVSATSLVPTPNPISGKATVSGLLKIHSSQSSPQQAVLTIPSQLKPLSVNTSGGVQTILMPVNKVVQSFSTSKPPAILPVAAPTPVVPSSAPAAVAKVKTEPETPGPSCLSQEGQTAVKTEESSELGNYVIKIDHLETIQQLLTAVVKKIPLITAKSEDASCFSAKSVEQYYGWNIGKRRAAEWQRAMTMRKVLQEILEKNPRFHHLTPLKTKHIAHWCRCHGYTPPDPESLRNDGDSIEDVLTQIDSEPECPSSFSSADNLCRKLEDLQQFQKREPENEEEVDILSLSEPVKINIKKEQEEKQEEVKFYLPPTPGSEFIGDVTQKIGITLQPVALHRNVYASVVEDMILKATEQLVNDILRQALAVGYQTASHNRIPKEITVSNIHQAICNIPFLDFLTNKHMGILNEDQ
UniProt Q2M389: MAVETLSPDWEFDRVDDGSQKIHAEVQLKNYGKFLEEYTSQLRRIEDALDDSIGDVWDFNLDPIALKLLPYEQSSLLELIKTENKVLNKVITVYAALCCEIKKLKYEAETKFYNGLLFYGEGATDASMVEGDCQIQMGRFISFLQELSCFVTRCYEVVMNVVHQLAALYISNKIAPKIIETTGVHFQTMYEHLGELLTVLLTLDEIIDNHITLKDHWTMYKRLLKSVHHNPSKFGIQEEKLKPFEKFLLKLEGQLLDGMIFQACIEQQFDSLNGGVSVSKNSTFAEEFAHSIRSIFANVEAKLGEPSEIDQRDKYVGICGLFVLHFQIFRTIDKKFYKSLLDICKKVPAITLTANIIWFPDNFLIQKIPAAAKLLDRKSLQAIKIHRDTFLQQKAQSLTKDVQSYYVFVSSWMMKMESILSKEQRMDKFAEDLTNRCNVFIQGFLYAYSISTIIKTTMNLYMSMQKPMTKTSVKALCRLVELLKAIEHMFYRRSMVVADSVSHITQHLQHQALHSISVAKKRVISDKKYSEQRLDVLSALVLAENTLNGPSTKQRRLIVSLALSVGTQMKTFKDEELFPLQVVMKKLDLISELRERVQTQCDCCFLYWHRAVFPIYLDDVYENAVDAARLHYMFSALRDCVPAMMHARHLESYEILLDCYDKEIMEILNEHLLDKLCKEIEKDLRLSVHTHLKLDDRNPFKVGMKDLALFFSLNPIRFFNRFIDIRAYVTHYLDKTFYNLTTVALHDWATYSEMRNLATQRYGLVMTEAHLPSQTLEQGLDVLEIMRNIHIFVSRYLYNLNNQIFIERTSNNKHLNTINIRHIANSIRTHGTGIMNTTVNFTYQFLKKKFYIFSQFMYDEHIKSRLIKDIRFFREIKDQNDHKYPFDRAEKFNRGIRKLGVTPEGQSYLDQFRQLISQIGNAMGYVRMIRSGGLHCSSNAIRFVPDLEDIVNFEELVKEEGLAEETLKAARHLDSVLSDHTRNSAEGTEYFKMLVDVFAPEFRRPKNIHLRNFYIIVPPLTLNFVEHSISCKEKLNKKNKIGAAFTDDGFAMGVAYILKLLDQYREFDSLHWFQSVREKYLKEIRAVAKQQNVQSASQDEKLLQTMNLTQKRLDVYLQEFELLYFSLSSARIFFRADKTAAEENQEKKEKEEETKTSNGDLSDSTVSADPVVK
UniProt O43542: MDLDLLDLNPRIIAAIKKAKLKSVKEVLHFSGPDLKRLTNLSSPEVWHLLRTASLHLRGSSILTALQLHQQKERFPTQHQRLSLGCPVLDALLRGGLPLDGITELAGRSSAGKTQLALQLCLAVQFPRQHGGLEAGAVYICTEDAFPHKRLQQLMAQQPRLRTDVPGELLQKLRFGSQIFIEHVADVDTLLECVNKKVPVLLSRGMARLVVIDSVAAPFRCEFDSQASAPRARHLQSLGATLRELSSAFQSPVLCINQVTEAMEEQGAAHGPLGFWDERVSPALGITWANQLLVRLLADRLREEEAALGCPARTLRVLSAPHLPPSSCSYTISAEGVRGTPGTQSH
UniProt Q9H6R7: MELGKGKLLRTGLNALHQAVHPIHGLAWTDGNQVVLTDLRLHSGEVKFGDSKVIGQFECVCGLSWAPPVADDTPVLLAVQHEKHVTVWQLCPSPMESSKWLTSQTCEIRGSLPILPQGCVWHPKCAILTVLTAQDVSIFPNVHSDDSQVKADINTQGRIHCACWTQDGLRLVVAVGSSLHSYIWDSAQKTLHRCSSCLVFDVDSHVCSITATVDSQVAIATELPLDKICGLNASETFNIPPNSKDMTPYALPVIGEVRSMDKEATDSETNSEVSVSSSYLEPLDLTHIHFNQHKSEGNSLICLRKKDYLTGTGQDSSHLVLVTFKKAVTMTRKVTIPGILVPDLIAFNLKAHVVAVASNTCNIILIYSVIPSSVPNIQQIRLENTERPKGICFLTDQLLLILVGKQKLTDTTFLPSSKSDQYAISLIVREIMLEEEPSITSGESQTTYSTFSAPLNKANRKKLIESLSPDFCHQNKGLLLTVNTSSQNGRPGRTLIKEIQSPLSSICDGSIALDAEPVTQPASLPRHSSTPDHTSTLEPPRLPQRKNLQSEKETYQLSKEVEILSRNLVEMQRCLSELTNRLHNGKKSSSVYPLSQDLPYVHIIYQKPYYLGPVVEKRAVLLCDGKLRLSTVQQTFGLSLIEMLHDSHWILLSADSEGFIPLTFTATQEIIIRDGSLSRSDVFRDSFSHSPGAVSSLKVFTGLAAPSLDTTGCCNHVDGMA
UniProt Q8TBZ3: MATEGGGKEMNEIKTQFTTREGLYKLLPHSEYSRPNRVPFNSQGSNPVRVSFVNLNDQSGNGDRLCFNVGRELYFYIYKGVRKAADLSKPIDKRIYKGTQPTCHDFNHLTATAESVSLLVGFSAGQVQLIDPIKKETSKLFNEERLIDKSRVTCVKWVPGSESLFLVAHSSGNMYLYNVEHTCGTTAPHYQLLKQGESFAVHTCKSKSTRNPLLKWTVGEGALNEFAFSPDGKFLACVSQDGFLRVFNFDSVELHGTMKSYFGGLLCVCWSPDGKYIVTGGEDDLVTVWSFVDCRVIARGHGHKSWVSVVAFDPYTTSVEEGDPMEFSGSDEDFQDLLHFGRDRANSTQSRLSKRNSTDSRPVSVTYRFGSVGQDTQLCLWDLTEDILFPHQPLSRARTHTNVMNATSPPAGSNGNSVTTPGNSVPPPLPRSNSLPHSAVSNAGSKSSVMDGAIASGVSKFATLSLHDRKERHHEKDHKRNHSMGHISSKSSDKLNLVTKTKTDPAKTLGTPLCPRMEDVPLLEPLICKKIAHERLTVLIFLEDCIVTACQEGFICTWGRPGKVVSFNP
UniProt P30291: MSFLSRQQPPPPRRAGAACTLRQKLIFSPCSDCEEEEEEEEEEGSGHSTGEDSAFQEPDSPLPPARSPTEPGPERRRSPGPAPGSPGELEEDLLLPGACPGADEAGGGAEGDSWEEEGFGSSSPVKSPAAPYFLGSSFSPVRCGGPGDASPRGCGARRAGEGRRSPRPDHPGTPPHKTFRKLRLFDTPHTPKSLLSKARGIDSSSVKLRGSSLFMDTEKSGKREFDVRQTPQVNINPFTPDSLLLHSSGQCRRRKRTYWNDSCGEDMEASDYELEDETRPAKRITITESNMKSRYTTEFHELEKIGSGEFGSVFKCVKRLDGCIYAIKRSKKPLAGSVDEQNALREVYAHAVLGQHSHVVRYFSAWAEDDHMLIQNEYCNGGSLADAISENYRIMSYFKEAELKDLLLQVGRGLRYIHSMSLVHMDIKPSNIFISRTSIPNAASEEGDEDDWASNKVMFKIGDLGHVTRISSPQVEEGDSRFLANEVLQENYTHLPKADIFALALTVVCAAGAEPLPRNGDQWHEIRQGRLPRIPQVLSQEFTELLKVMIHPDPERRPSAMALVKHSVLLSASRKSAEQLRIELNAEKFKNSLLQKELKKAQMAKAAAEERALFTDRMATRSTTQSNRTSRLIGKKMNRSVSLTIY

compound: ClCC(=O)N[C@@H]1CCCc2ccccc12; assay: log2 mean competition ratio of IA-DTB cysteine labelling (DMSO/compound) (log2 ratio); higher = stronger cysteine engagement by compound; settings: 50 µM; treatment time: 4 h; cell line lysate: HEK293T
Procedure: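 IA-DTB competitive cysteine chemoproteomics in HEK293T RIPA lysate. Lysates were treated with compound 29 or 30 at 50 or 200 µM for 4 h, then IA-DTB (500 µM, 1 h), trypsin-digested, NeutrAvidin-enriched and analysed by diaPASEF. Competition ratio = intensity DMSO / intensity compound (n=4 treated, n=64 DMSO); binding: mean log2 CR ≥ 1 and p ≤ 0.05 plus QC filters. Target is the cysteine site.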

Row | Target | log2 mean competition ratio
1 | XIAP C213 (UniProt P98170) | 0.135
2 | WASHC3 C48 (UniProt Q9Y3C0) | -0.26
3 | WDR11 C1071 (UniProt Q9BZH6) | 0.176
4 | VRK3 C191 (UniProt Q8IV63) | -0.235
5 | WDR62 C826 (UniProt O43379) | 0.348
6 | YEATS2 C1173 (UniProt Q9ULM3) | -0.181
7 | WDHD1 C180 (UniProt O75717) | -0.267
8 | WRN C771 (UniProt Q14191) | 0.235
9 | WASHC4 C344 (UniProt Q2M389) | -0.164
10 | XRCC3 C310 (UniProt O43542) | 0.0376
11 | VPS35L C253 (UniProt Q7Z3J2) | -0.418
12 | WDR36 C463 (UniProt Q8NI36) | -0.34
13 | WDCP C472 (UniProt Q9H6R7) | 0.527
14 | WDR20 C514 (UniProt Q8TBZ3) | -0.0102
15 | XPO5 C736 (UniProt Q9HAV4) | 0.521
16 | ZBTB21 C152 (UniProt Q9ULJ3) | 0.165
17 | XXYLT1 C10 (UniProt Q8NBI6) | 0.169
18 | ZBTB11 C39 (UniProt O95625) | 0.196
19 | WEE1 C19 (UniProt P30291) | 0.233
20 | WDR75 C490 (UniProt Q8IWA0) | 0.0582

same assay, conditions: 200 µM; treatment time: 4 h; cell line lysate: HEK293T

Row | Target | log2 mean competition ratio
21 | XIAP C213 (UniProt P98170) | 0.0231
22 | WASHC3 C48 (UniProt Q9Y3C0) | -0.13
23 | WDR11 C1071 (UniProt Q9BZH6) | -0.611
24 | VRK3 C191 (UniProt Q8IV63) | 0.55
25 | WDR62 C826 (UniProt O43379) | 0.47
26 | YEATS2 C1173 (UniProt Q9ULM3) | 0.258
27 | WDHD1 C180 (UniProt O75717) | -0.179
28 | WRN C771 (UniProt Q14191) | 0.528
29 | WASHC4 C344 (UniProt Q2M389) | 0.0734
30 | XRCC3 C310 (UniProt O43542) | 0.276
31 | VPS35L C253 (UniProt Q7Z3J2) | -0.109
32 | WDR36 C463 (UniProt Q8NI36) | 0.0415
33 | WDCP C472 (UniProt Q9H6R7) | 0.448
34 | WDR20 C514 (UniProt Q8TBZ3) | -0.508
35 | XPO5 C736 (UniProt Q9HAV4) | -0.114
36 | ZBTB21 C152 (UniProt Q9ULJ3) | -0.0628
37 | XXYLT1 C10 (UniProt Q8NBI6) | 0.271
38 | ZBTB11 C39 (UniProt O95625) | -0.158
39 | WEE1 C19 (UniProt P30291) | 0.0711
40 | WDR75 C490 (UniProt Q8IWA0) | 0.122
